Results as given in PubChem BioAssay AID1487 (National Center for Advancing Translational Sciences (NCATS), 2009).
Some of the results follow. Further columns of the screen follow, without active or inactive calls. Most of these compounds were active or inconclusive in the main read-out, so they are no random draw. Potencies come from curve fits of mixed quality, noted in brackets.

Assay: qHTS Assay for Modulators of Lamin A Splicing
Details: HeLa LMNA splicing GFP/RFP minigene ratio, 48 h
Summary of the method: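 S3 HeLa stable clones carrying a lamin A-EGFP splicing minigene plus DsRed2 were seeded at 600 cells/well in Opti-MEM with 2% FBS, pin-dosed and incubated 48 h at 37°C. Acumen cytometry (488 nm) gave the GFP/RFP total-intensity ratio.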

[1] = measured here: RFP viability control channel
[2] = measured here: GFP splicing reporter channel

C[C@@H](C(=O)OCC(=O)NCCc1ccc(S(N)(=O)=O)cc1)N1C(=O)C2CCCCC2C1=O (stereo not given in full)
AC50 [1]: 0.794 µM [falling, full curve]

COc1ccc(C)cc1NC1(c2ccccc2)C(=O)c2ccccc2C1=O
AC50 [2]: 0.0316 µM [falling, full curve, poor fit]

O=c1nc(/C=C/c2ccc(-c3ccc(F)cc3)o2)cc(C(F)(F)F)[nH]1
AC50 [1]: 3.16 µM [rising, single point]

CCOc1ccc(CCNC(=O)CN2CCN(Cc3ccccc3C)C2=O)cc1OCC
AC50 [1]: 35.5 µM [rising, single point]

Cc1cccc(OCC(=O)Nc2ccc3c(c2)nc(CCN2CCN(C)CC2)n3C)c1
AC50 [2]: 11.2 µM [rising, partial curve]
AC50 [1]: 14.1 µM [rising, single point]

O=S(=O)(Cc1ccccc1)N1CCCC(c2nc(-c3ccc(F)cc3)no2)C1 (stereo not given)
AC50 [1]: 14.1 µM [rising, single point]

c1ccc2c(C3=NNC(=NC4CC4)SC3)c[nH]c2c1
AC50 [2]: 8.91 µM [rising, partial curve]
AC50 [1]: 15.8 µM [rising, partial curve, poor fit]

CCCN(CCC)C(=O)CSc1nc2n[nH]c(C)c2c(=N)n1-c1ccc(OCC)cc1
AC50 [1]: 31.6 µM [rising, single point]

CCNc1ncc2nc(-c3cn(C)c4ccccc34)c(=O)n(Cc3cccs3)c2n1
AC50 [2]: 4.47 µM [falling, partial curve]

C=CCn1c(COc2ccccc2)nnc1SCC(=O)N/N=C/c1cc(Cl)ccc1O
AC50 [1]: 35.5 µM [rising, single point]

Cc1ccc(-n2nnnc2CSc2nnc(-c3ccc(O)cc3)o2)cc1
AC50 [2]: 0.00794 µM [falling, full curve, poor fit]

CC(C)CCNC(=S)Nc1ccc(Br)cc1
AC50 [2]: 35.5 µM [rising, single point]
AC50 [1]: 35.5 µM [rising, single point]

Cc1cc(C)c(C(=O)CSc2nc3ccccc3c(=O)[nH]2)cc1C
AC50 [1]: 0.00398 µM [falling, full curve, poor fit]

COc1ccc(NC(=O)c2[nH]c(C)c(C(C)=O)c2C)cc1Cl
AC50 [2]: 22.4 µM [rising, single point]
AC50 [1]: 7.08 µM [rising, partial curve, poor fit]

O=[N+]([O-])c1cc(S(=O)(=O)NC2=NCCCCC2)ccc1Cl
AC50 [1]: 0.00447 µM [rising, full curve, poor fit]

Cc1ccc(-c2cnc(C3CC3)o2)cc1S(=O)(=O)Nc1ccc(F)cc1Cl
AC50 [2]: 35.5 µM [rising, single point]
AC50 [1]: 22.4 µM [rising, single point]

CCOC(=O)CN1N=C(/C=C/c2ccc(C)cc2)CCC1=O
AC50 [2]: 12.6 µM [falling, single point]
AC50 [1]: 10 µM [falling, partial curve]

Cc1ccc(Cn2ccc(NC(=O)c3nc4ncccn4n3)n2)cc1
AC50 [1]: 0.0794 µM [falling, full curve, poor fit]

Cc1c(Cl)cccc1NC(=S)NCc1cccs1
AC50 [2]: 31.6 µM [rising, single point]
AC50 [1]: 31.6 µM [rising, single point]

Cc1ccc(-c2c3c(=O)n(C)c(=O)n(C)c3cn2-n2cnnc2)cc1
AC50 [1]: 31.6 µM [rising, single point]

O=C(NCc1ccccc1)C(c1cccs1)N(C(=O)c1csnn1)C1CC1 (stereo not given)
AC50 [1]: 35.5 µM [rising, single point]

CC(=O)Nc1ccccc1OCC(=O)NCCC1=CCCCC1
AC50 [1]: 5.01 µM [rising, partial curve]

Cc1ccc(C)c(N2CCN(C(=O)CCc3c(C)nn(-c4ccc(N5CCCC5)nn4)c3C)CC2)c1
AC50 [2]: 0.00316 µM [falling, full curve, poor fit]
AC50 [1]: 0.00282 µM [falling, full curve, poor fit]

O=c1c2ccccc2c(=O)n(Cc2ccccc2)n1Cc1ccccc1
AC50 [2]: 11.2 µM [rising, single point]
AC50 [1]: 20 µM [rising, single point]

CC(=O)CSc1nc(N(C)C)nc(N(C)C)n1
AC50 [2]: 0.0794 µM [falling, full curve, poor fit]
AC50 [1]: 0.0794 µM [falling, full curve]

CC(C)CNC(=S)N1CCC(NC(=O)c2ccco2)CC1
AC50 [1]: 22.4 µM [falling, single point]

O=c1cc(CNc2ccc(Br)cc2)nc2sccn12
AC50 [1]: 28.2 µM [rising, single point]

CCOC(=O)c1c(C=O)c(C)n(Cc2ccccc2Cl)c1C
AC50 [1]: 12.6 µM [rising, single point]

CCOC(=O)c1c(/N=C/N(C)C)sc(/C=N/Nc2ccccc2)c1-c1ccccc1Cl
AC50 [1]: 11.2 µM [rising, partial curve]

Cc1ccccc1CSc1nc2c([nH]c3ccccc32)c(=O)n1-c1ccccc1
AC50 [2]: 14.1 µM [falling, partial curve, poor fit]
AC50 [1]: 25.1 µM [falling, partial curve, poor fit]

CC1=C(C(=O)OCC2CCCO2)C(c2coc3ccccc3c2=O)C2=C(CCCC2=O)N1 (stereo not given)
AC50 [1]: 0.02 µM [falling, full curve, poor fit]

CCOc1ccc(NS(=O)(=O)c2ccc(C(=O)N3CCN(c4ncccn4)CC3)cc2)cc1
AC50 [2]: 0.00501 µM [rising, full curve, poor fit]
AC50 [1]: 0.00501 µM [rising, full curve, poor fit]

CCC(c1nnnn1Cc1ccccc1)N1CCN(c2ccccc2)CC1 (stereo not given)
AC50 [2]: 10 µM [falling, partial curve, poor fit]
AC50 [1]: 20 µM [falling, partial curve]

CO/N=C/CC(=O)c1ccc(-c2ccccc2)cc1
AC50 [2]: 11.2 µM [falling, partial curve]
AC50 [1]: 11.2 µM [falling, single point]

Cc1ccc(C(=O)N2CCN(c3ccccc3)CC2)cc1NC(=O)c1nsc2ccccc12
AC50 [2]: 1.12 µM [rising, partial curve]

Cc1cccc(NC(=O)/C(=C\c2ccc([N+](=O)[O-])o2)NC(=O)c2ccc(Cl)cc2)c1
AC50 [2]: 12.6 µM [rising, single point]
AC50 [1]: 20 µM [rising, partial curve, poor fit]

O=C(Nc1nnc(C2=COCCO2)o1)c1ccc(S(=O)(=O)N2CCCC2)cc1
AC50 [2]: 0.00316 µM [rising, full curve, poor fit]

CCCc1nc2ccccc2c(=O)n1/N=C/c1ccccc1O
AC50 [2]: 35.5 µM [rising, single point]
AC50 [1]: 28.2 µM [rising, single point]

COc1cccc(-c2nn(-c3ccccc3)cc2C(=O)OCC(=O)Nc2ncc(Cl)cc2Cl)c1
AC50 [1]: 5.01 µM [rising, partial curve]

Cc1cccc(-c2nnc(SCC(=O)Nc3ccc(C)c(C)c3)o2)c1
AC50 [1]: 1.78 µM [falling, partial curve]

CC(=O)c1c(C)[nH]c(C(=O)CSc2nnc(-c3ccco3)n2Cc2ccccc2)c1C
AC50 [2]: 7.94 µM [rising, partial curve]
AC50 [1]: 10 µM [rising, partial curve]

COCCCNC(=O)CCCn1c(=O)c2ccccc2n(CC(=O)Nc2c(C)cc(C)cc2C)c1=O
AC50 [2]: 0.0224 µM [falling, full curve, poor fit]

Cc1cc(C)c(Cn2cnc(-c3ccc([N+](=O)[O-])cc3)c2)c(C)c1
AC50 [2]: 3.55 µM [falling, full curve, poor fit]

Cc1ccc(CNC(=O)CN2C(=O)C3CCCCN3c3ccc(C(=O)N(C)C)cc32)cc1 (stereo not given)
AC50 [1]: 0.00501 µM [falling, full curve, poor fit]

Cc1ccc(C)c(NC2=CC(=O)CC(C)(C)C2)c1C#N
AC50 [2]: 22.4 µM [rising, single point]

CCCCCc1nc2c(C#N)c(-c3ccc(Cl)cc3)ccn2n1
AC50 [1]: 28.2 µM [falling, partial curve]

O=C(CSc1nc2ccccc2[nH]1)Nc1ccc2c(c1)CCC2
AC50 [1]: 12.6 µM [rising, single point]

O=C(O)/C=C/C(=O)NC1CCS(=O)(=O)C1 (stereo not given)
AC50 [2]: 3.98 µM [falling, full curve, poor fit]
AC50 [1]: 1.58 µM [falling, full curve, poor fit]

COC1(OC)N=C(N)C2(C#N)C(c3ccccc3)NC(C)=CC12C#N (stereo not given)
AC50 [2]: 0.0112 µM [rising, full curve]

CCOC(=O)c1csc(NC(=O)c2ccc(OCC)cc2)n1
AC50 [2]: 2.82 µM [falling, partial curve, poor fit]

COc1ccccc1NC(=O)C1=C(C)Nc2nnnn2C1c1cccc(Br)c1 (stereo not given)
AC50 [2]: 17.8 µM [falling, single point]
AC50 [1]: 20 µM [falling, single point]

Cc1cc(F)ccc1NC(=O)C1CCCO1 (stereo not given)
AC50 [1]: 1.12 µM [falling, partial curve, poor fit]

CCCOc1ccc(CNC(=O)CCCN2C(=O)CSc3c2c(C)nn3-c2ccccc2)cc1
AC50 [2]: 20 µM [falling, partial curve, poor fit]
AC50 [1]: 0.282 µM [falling, partial curve, poor fit]

CCOc1ccc(-n2c(-c3ccccc3)c[n+]3c2CCCCC3)cc1
AC50 [2]: 2.24 µM [rising, partial curve]
AC50 [1]: 3.55 µM [rising, partial curve]
